The record followed here is patent US20060234294A1 (JAPAN SCIENCE AND TECHNOLOGY AGENCY, published 2006).

Amino acid sequences for entries named in this document (tags omitted). A change or cut given only in a name is not applied to a line headed by its entry.
UniProt Q60610: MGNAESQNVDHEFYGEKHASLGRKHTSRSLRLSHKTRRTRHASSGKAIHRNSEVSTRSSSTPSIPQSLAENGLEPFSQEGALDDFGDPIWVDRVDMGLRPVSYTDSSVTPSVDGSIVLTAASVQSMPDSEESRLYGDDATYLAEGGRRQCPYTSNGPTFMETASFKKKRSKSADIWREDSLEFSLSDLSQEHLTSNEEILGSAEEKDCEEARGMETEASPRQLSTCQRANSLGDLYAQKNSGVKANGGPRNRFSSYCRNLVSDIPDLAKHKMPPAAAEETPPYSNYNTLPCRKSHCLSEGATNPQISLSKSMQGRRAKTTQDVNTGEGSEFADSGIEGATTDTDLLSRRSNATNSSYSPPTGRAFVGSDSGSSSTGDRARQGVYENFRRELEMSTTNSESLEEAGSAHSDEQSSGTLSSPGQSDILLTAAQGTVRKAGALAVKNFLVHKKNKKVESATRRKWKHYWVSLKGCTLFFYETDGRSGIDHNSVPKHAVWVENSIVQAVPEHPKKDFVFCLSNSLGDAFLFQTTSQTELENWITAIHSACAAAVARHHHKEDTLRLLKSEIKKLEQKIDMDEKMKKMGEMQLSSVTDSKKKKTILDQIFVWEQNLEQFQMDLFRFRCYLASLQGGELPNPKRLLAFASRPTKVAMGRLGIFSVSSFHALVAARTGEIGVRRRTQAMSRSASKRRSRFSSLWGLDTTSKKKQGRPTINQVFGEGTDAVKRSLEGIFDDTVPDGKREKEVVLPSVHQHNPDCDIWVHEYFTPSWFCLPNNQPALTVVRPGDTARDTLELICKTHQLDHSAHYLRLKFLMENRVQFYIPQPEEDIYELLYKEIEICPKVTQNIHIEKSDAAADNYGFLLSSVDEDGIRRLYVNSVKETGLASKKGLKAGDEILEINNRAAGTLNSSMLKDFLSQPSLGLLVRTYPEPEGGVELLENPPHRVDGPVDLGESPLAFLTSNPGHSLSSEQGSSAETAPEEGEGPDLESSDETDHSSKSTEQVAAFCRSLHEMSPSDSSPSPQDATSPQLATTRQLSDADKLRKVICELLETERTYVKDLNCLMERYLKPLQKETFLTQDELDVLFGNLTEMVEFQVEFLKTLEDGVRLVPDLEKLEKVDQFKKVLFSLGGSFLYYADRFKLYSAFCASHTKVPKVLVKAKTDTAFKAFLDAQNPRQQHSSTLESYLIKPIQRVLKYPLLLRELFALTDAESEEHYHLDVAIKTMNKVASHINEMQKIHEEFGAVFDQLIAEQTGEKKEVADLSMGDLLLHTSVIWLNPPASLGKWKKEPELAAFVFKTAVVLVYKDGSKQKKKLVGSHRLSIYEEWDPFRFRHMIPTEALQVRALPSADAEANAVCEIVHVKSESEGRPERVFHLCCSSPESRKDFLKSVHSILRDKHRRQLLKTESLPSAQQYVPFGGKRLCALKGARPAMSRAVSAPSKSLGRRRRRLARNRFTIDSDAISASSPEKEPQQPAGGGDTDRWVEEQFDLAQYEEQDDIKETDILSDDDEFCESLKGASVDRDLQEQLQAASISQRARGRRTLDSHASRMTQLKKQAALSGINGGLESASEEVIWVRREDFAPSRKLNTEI
UniProt Q8C3J5: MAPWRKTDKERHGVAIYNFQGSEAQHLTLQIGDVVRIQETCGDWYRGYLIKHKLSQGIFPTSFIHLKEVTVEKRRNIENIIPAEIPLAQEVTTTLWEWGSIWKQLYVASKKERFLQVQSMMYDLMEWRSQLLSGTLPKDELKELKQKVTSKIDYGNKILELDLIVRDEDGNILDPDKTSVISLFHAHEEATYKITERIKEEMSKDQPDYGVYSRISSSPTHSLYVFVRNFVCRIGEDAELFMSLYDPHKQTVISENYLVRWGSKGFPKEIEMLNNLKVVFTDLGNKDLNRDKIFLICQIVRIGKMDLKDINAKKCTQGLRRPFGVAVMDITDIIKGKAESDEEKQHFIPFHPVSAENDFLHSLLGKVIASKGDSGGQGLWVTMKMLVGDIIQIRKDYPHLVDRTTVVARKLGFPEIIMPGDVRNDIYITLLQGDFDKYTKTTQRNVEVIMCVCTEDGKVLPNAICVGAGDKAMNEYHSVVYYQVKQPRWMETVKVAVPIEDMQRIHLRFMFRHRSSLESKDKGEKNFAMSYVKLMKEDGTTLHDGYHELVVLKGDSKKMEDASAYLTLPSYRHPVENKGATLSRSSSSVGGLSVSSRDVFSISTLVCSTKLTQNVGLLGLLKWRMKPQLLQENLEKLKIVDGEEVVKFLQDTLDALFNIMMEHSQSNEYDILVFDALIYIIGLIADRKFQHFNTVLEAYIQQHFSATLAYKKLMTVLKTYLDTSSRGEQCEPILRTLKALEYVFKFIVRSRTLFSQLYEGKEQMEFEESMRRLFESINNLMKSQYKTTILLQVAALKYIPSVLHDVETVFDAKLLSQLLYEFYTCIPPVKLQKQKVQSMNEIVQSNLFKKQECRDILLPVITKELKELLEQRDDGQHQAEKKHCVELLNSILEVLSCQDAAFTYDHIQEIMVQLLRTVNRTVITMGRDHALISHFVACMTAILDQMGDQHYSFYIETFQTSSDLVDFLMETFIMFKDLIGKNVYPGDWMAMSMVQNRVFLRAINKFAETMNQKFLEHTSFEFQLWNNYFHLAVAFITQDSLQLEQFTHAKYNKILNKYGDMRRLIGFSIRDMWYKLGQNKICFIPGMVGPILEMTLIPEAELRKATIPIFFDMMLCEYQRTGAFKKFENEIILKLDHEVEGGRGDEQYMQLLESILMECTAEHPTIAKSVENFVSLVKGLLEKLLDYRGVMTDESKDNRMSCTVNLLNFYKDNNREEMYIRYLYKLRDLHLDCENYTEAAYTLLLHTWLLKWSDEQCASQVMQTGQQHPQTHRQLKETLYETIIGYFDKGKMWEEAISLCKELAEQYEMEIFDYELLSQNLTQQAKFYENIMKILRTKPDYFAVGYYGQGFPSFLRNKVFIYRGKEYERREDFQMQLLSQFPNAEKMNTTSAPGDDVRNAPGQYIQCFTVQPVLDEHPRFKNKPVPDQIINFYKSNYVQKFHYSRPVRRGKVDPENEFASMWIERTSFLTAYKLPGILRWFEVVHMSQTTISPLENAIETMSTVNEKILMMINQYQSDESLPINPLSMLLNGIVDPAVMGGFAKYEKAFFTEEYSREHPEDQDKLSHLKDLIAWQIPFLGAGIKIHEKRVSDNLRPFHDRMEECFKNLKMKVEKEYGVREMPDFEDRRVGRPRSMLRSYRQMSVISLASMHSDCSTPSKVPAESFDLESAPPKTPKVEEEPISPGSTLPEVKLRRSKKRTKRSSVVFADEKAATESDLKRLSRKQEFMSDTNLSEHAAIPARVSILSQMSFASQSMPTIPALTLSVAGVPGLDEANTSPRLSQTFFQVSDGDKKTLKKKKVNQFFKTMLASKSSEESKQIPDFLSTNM

These are yes or no findings as the source states them, for the method shown. In cells and extracts the contact can be indirect. Some results given as binding are weak or reduced against the parent protein; the word gives no strength.

The target of test [1] is full length ELMO1 with V5 tag (PcDNA ELMO1-V5) (mouse) (UniProt Q8BPU7). Description: co-immunoprecipitation from 293T cells: anti-HA IP, anti-V5 Western blot. (In general: In western blotting, separated proteins are transferred to a membrane and probed.)
Test [2] has as its target Tiam1 with HA tag at its C terminus (PCI Tiam1-HA) (mouse) (UniProt Q60610). The description is as above.
The target of test [3] is full length ELMO1 with V5 tag (PcDNA ELMO1-V5) (mouse) (UniProt Q8BPU7). Description: summary of the co-immunoprecipitation experiments.
Test [4] has the same target. Description: co-immunoprecipitation and Western blot, 293T cells (figure legend).
For test [5], the target named is full length DOCK2 with HA tag at the C terminus (PcDNA DOCK2-HA) (mouse) (UniProt Q8C3J5). Description: co-immunoprecipitation from 293T cells: anti-HA IP, anti-V5 Western blot.
Test [6] has as its target Tiam1 with HA tag at its C terminus (PCI Tiam1-HA) (mouse) (UniProt Q60610). The test is described as follows: summary of the co-immunoprecipitation experiments.
Test [7] shares this target. The test is described as follows: co-immunoprecipitation and Western blot, 293T cells (figure legend).
The target in test [8] is full length DOCK2 with HA tag at the C terminus (PcDNA DOCK2-HA) (mouse) (UniProt Q8C3J5). The test is described as above.

As to “DOCK2 N-HA (amino acid residue 1-502 of DOCK2, HA tag at the C terminus) (from UniProt Q8C3J5 1-502)”, the binding result in test [1] was “binds”.

In the case of “ELMO1-delPH-V5 (amino acid residues 1-565 and 695-727 of ELMO1) (from UniProt Q8BPU7 1-727)”, in test [2], the binding entry was “binds”. As to “DOCK2 SH3 mutant L27E-HA (from UniProt Q8C3J5 1-1828)”, in test [1], the binding result is given as “binds”. The same measure, in the same setting: as for “DOCK2ΔC-HA (amino acid residue 1-1311 of DOCK2, HA tag at the C terminus) (from UniProt Q8C3J5 1-1311)”, the entry is “binds”.

Regarding “full length DOCK2 with HA tag at the C terminus (PcDNA DOCK2-HA) (from UniProt Q8C3J5 1-1828)”, the binding entry in test [3], in test [4] and in test [1] was “binds” each time.

B1: ELMO1-del8-V5 (amino acid residues 345-727 of ELMO1) (other)
chain: MEKRKSMYTRDYKKLGFINHVNPAMDFTQTPPGMLALDNMLYFAKHHQDAYIRIVLENSSREDKHECPFGRSSIELTKMLCEILKVGELPSETCNDFHPMFFTHDRSFEEFFCICIQLLNKTWKEMRATSEDFNKVMQVVKEQVMRALTTKPSSLDQFKSKLQNLSYTEILKIRQSERMNQEDFQSRPILELKEKIQPEILELIKQQRLNRLVEGTCFRKLNARRRQDKFWYCRLSPNHKVLHYGDLEESPQGEVPHDSLQDKLPVADIKAVVTGKDCPHMKEKGALKQNKEVLELAFSILYDSNCQLNFIAPDKHEYCIWTDGLNALLGKDMMSDLTRNDLDTLLSMEIKLRLLDLENIQIPDAPPPIPKEPSNYDFVYDCN
notes: Expressed in 293T cells; also called PcDNA ELMO1-del8-V5; not shown: V5 (and His) tag from the PcDNA V5His vector
As to B1, the binding result in test [5] is reported as “binds”.

B2: full length ELMO1 with V5 tag (PcDNA ELMO1-V5) (other)
chain: MPPPSDIVKVAIEWPGAYPKLMEIDQKKPLSAIIKEVCDGWSLANHEYFALQHADSSNFYITEKNRNEIKNGTILRLTTSPAQNAQQLHERIQSSSMDAKLEALKDLASLSRDVTFAQEFINLDGISLLTQMVESGTERYQKLQKIMKPCFGDMLSFTLTAFVELMDHGIVSWDTFSVAFIKKIASFVNKSAIDISILQRSLAILESMVLNSHDLYQKVAQEITIGQLIPHLQGTDQEIQTYTIAVINALFLKAPDERRQEMANILAQKQLRYIILTHVIRAQRAINNEMAHQLYVLQVLTFNLLEDRMMTKMDPQDQAQRDIIFELRRIAFDAESEPNNSSGSMEKRKSMYTRDYKKLGFINHVNPAMDFTQTPPGMLALDNMLYFAKHHQDAYIRIVLENSSREDKHECPFGRSSIELTKMLCEILKVGELPSETCNDFHPMFFTHDRSFEEFFCICIQLLNKTWKEMRATSEDFNKVMQVVKEQVMRALTTKPSSLDQFKSKLQNLSYTEILKIRQSERMNQEDFQSRPILELKEKIQPEILELIKQQRLNRLVEGTCFRKLNARRRQDKFWYCRLSPNHKVLHYGDLEESPQGEVPHDSLQDKLPVADIKAVVTGKDCPHMKEKGALKQNKEVLELAFSILYDSNCQLNFIAPDKHEYCIWTDGLNALLGKDMMSDLTRNDLDTLLSMEIKLRLLDLENIQIPDAPPPIPKEPSNYDFVYDCN
notes: Expressed in 293T cells; also called mouse ELMO1; not shown: V5 (and His) tag from the PcDNA V5-His vector
Take B2: the binding result in test [6], in test [7], in test [8], in test [2] and in test [5] was “binds” in each case.

B3: ELMO1-del1-V5 (amino acid residues 147-727 of ELMO1) (other)
chain: MKPCFGDMLSFTLTAFVELMDHGIVSWDTFSVAFIKKIASFVNKSAIDISILQRSLAILESMVLNSHDLYQKVAQEITIGQLIPHLQGTDQEIQTYTIAVINALFLKAPDERRQEMANILAQKQLRYIILTHVIRAQRAINNEMAHQLYVLQVLTFNLLEDRMMTKMDPQDQAQRDIIFELRRIAFDAESEPNNSSGSMEKRKSMYTRDYKKLGFINHVNPAMDFTQTPPGMLALDNMLYFAKHHQDAYIRIVLENSSREDKHECPFGRSSIELTKMLCEILKVGELPSETCNDFHPMFFTHDRSFEEFFCICIQLLNKTWKEMRATSEDFNKVMQVVKEQVMRALTTKPSSLDQFKSKLQNLSYTEILKIRQSERMNQEDFQSRPILELKEKIQPEILELIKQQRLNRLVEGTCFRKLNARRRQDKFWYCRLSPNHKVLHYGDLEESPQGEVPHDSLQDKLPVADIKAVVTGKDCPHMKEKGALKQNKEVLELAFSILYDSNCQLNFIAPDKHEYCIWTDGLNALLGKDMMSDLTRNDLDTLLSMEIKLRLLDLENIQIPDAPPPIPKEPSNYDFVYDCN
notes: Expressed in 293T cells; also called ELMO1-dell; PcDNA ELMO1-del1-V5; not shown: V5 (and His) tag from the PcDNA V5His vector
Take B3: in test [5], the binding entry is “binds”.
